# Reference: PubChem BioAssay AID504847 (National Center for Advancing Translational Sciences (NCATS), 2011)
# By UniProt entry, the sequences of proteins in these tests, tags left out.
# UniProt P11473, whole entry, looked up: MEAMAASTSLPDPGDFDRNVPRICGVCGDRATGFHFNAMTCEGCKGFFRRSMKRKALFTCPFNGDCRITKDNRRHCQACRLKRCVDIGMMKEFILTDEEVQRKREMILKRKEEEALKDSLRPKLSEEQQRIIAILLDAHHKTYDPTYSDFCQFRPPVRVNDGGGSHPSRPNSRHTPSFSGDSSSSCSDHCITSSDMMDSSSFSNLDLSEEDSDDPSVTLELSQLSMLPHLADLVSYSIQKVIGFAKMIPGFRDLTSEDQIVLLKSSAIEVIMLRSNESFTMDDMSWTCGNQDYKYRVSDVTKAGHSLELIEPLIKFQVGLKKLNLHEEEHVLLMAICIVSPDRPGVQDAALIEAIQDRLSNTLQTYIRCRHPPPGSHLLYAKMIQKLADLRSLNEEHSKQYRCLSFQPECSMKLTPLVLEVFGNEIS
# The campaign covered roughly 400,000 compounds. About 3,700 (0.93%) were called active. The inconclusive results got no clear call from the source; some entries with a clear call stand among them for comparison. The call rests on the fitted dose curve; in most records, active means well fitted inhibition curve with a large enough effect; inconclusive means small, poorly fitted or top-dose-only effect, or another doubt; inactive means no such curve, though single readings can be large or run the other way. A potency beside an inconclusive call is a rough fit, not a confirmed value.
# Target: Vitamin D3 receptor (Homo sapiens) (UniProt P11473)
# Experiment: Inhibitors of the vitamin D receptor (VDR): qHTS
# Settings: VDR-SRC2-3 peptide fluorescence polarization, 2 h; max response, negative = inhibition: stronger effect = lower value
# Method in brief: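 Two reagent solutions held at 4 deg C in the dark were dispensed, compounds pinned at 23 nl, and the mixture incubated 2 h at room temperature. Read-out: fluorescence polarization of VDR–SRC2-3 peptide binding.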
# On the % scale 0 is the no-effect control and ±100 the full control effect; potency means the concentration at half of the fitted maximal effect.
Structure (SMILES),"max response, negative = inhibition",Potency
COc1cc(CN(CCc2c(C)[nH]c3ccc(C)cc23)C(=S)NC(C)(C)C)cc(OC)c1OC,inactive: -2.26%,
O=C(N/N=C/C=C/c1ccco1)C(O)c1ccccc1 (stereo not given),,"inconclusive: 56.2 µM [inhibitor, partial curve, poor fit]"
Cc1ccc(-n2[nH]c(C)c(C=Nc3ccc(Br)cn3)c2=O)cc1,inactive: 16.8%,
COc1ccc(/C=C2/SC(=S)N(NS(=O)(=O)c3ccccc3)C2=O)cc1,,"inconclusive: 70.8 µM [inhibitor, single point]"
O=C(/C=C/c1c(Cl)nc2ccccn12)Nc1ccc(F)cc1,,"inconclusive: 70.8 µM [inhibitor, partial curve, poor fit]"
COc1ccccc1NC(=O)CCc1nc2ccccc2s1,,"inconclusive: 50.1 µM [inhibitor, partial curve, poor fit]"
COc1ccc(CSc2nc3ccccc3c(=O)[nH]2)cc1F,inactive: -11%,
CNc1ccc(Br)cc(C(=O)/C=C/c2cccc(Cl)c2Cl)c1=O,,"inconclusive: 39.8 µM [inhibitor, partial curve, poor fit]"
Cc1ccccc1C(=O)NNC(=O)c1cccc(Br)c1,,"inconclusive: 89.1 µM [inhibitor, single point]"
CC(=O)NCCc1nc2ccccc2n1Cc1ccc(C)cc1,,"inconclusive: 79.4 µM [inhibitor, partial curve, poor fit]"
Cc1cccnc1N(C(=O)Nc1ccccc1)C1=NCC(C)(C)S1,inactive: 0.42%,
Cc1cc([N+](=O)[O-])ccc1N=Nc1c(N)[nH]n(-c2ccccc2)c1=O,,"inconclusive: 70.8 µM [inhibitor, partial curve]"
O=C(NC(=S)Nc1cccc2ncccc12)c1ccco1,inactive: -13.9%,
O=C(CSC1=Nc2ccccc2C2=NC(Cc3ccccc3)C(=O)N12)Nc1cccc(Cl)c1 (stereo not given),inactive: 4.15%,
CCC1(c2ccc(Cl)cc2)NC(=S)N(c2ccc(C)c(C)c2)N1 (stereo not given),,"inconclusive: 63.1 µM [inhibitor, partial curve, poor fit]"
Cc1ccnc(NC(c2cccc(O)c2)c2ccc3ccc(C)nc3c2O)c1 (stereo not given),,"inconclusive: 56.2 µM [inhibitor, partial curve]"
CSc1ccc(C2C(C#N)=C(N)Oc3cc4c(cc32)OCO4)cc1 (stereo not given),inactive: -1.12%,
O=C(Sc1ccc(Cl)cc1)c1cccc(Cn2cc(C(F)(F)F)ccc2=O)c1,,"inconclusive: 56.2 µM [inhibitor, partial curve, poor fit]"
COCCNc1nc(C)c(C(C)=O)s1,,"inconclusive: 89.1 µM [inhibitor, single point]"
COc1ccccc1NC(=O)CSCc1cc(=O)c2cccc(Cl)c2[nH]1,inactive: 16.7%,
CN(C)CCNC(=O)c1ccc2nc(Cc3ccccc3)oc2c1,inactive: 1.96%,
CCOC(=O)c1c(NC(=O)c2cccs2)sc(C(=O)N(C)C)c1C,,"inconclusive: 56.2 µM [inhibitor, partial curve, poor fit]"
CCOC(=O)N1CCN(C(=O)CSc2ccc(-c3ccccc3OC)nn2)CC1,inactive: -12.2%,
N#CC1=C(N)C(C#N)(C#N)C2(CCC3(CC2)OCCO3)C2CC3(CC=C12)OCCO3 (stereo not given),inactive: 17.7%,

# Compounds from the list above with an NH in an aromatic ring (5):
Structure (SMILES),"max response, negative = inhibition",Potency
COc1cc(CN(CCc2c(C)[nH]c3ccc(C)cc23)C(=S)NC(C)(C)C)cc(OC)c1OC,inactive: -2.26%,
Cc1ccc(-n2[nH]c(C)c(C=Nc3ccc(Br)cn3)c2=O)cc1,inactive: 16.8%,
COc1ccc(CSc2nc3ccccc3c(=O)[nH]2)cc1F,inactive: -11%,
Cc1cc([N+](=O)[O-])ccc1N=Nc1c(N)[nH]n(-c2ccccc2)c1=O,,"inconclusive: 70.8 µM [inhibitor, partial curve]"
COc1ccccc1NC(=O)CSCc1cc(=O)c2cccc(Cl)c2[nH]1,inactive: 16.7%,

# Going on with the list:

Structure (SMILES),"max response, negative = inhibition",Potency
CCOc1ccc(/C=C(\C)C(=O)c2c(C)cc(C)[nH]c2=O)cc1,inactive: -5.39%,
C[C@@H]1CC=C[C@@H]2[C@H]1C(=O)N(Cc1ccccc1)[C@H]2c1ccccc1Br,,"inconclusive: 44.7 µM [inhibitor, full curve]"
O=C(CN(CCc1ccccc1)C(=O)Cn1nnc(-c2cccs2)n1)NCc1ccco1,inactive: -0.902%,
COc1ccc2c(c1)C1=NN(/C(C)=C/C(C)=O)C(c3ccc(F)cc3)C1CC2 (stereo not given),,"inconclusive: 89.1 µM [inhibitor, single point]"
COc1cc2c(cc1OC)CN(CCC(=O)c1ccc(Br)cc1)CC2,,active: 70.8 µM
COc1ccc(NC(=O)Cn2nnc(C(=O)Nc3ccccc3C)c2N)cc1,,"inconclusive: 89.1 µM [inhibitor, single point]"
COc1cc(=O)[nH]c(=O)n1C(=O)Cc1ccccc1,,"inconclusive: 8.91 µM [inhibitor, single point]"
O=C(C1=C(O)C(=O)N(c2ccccc2)C1c1ccc([N+](=O)[O-])cc1)c1cccs1 (stereo not given),,"inconclusive: 50.1 µM [inhibitor, partial curve]"
COc1ccccc1N1CCN(S(=O)(=O)c2ccc3c(c2)CCCN3C(C)=O)CC1,inactive: -3.19%,
O=C(NCc1cccnc1)C1CC(c2ccccc2Cl)=NO1 (stereo not given),inactive: -7.43%,
COc1ccc(-n2c3nc4ccccc4nc3c3c(=N)oc(C)nc32)cc1,,"inconclusive: 56.2 µM [inhibitor, partial curve, poor fit]"
O=C(NC(=S)Nc1ccccc1N1CCCC1)c1ccc(F)cc1,inactive: -18%,
CCCOc1ccc(-c2c(C(=O)N/N=C/c3ccc(OCC)cc3)nnn2-c2nonc2N)cc1,,"inconclusive: 100 µM [inhibitor, single point]"
Cn1c(OCc2ccc3c(c2)OCO3)nc2c1c(=O)n(Cc1cccc(Cl)c1)c(=O)n2C,inactive: 7.02%,
Nc1nc2cc(S(=O)(=O)N3CCOCC3)ccc2o1,,active: 39.8 µM
CC1CCN(C(=O)c2ccc(S(=O)(=O)Cc3cc(F)ccc3F)c([N+](=O)[O-])c2)CC1,,"inconclusive: 89.1 µM [inhibitor, single point]"
Cc1nc2sc(C(c3ccc(F)cc3)N3CCN(C(=O)c4ccco4)CC3)c(O)n2n1 (stereo not given),inactive: 2.82%,
Cc1nc2ccn(Cc3cccnc3)c(=O)c2cc1C(=O)NCc1ccc(Cl)cc1,inactive: 2.42%,
O=C(O)C1=C(OCc2ccc(F)c(F)c2)C(=O)NCC1,,active: 79.4 µM
Cc1ccc(S(=O)(=O)/N=C2/NC(=O)/C(=C\c3cc(Br)cc(Br)c3O)S2)cc1,,active: 50.1 µM
COc1ccccc1CNC(=O)C1CCN(S(=O)(=O)c2c(C)noc2/C=C/c2cccs2)CC1,inactive: -20.7%,
CCn1c(-c2cc(OC)c(OC)c(OC)c2)n[nH]c1=S,inactive: -9.77%,
Cc1nn(CCCC(=O)Nc2sc3c(c2C#N)CCC3)c(C)c1[N+](=O)[O-],,"inconclusive: 70.8 µM [inhibitor, single point]"
O=C(O)c1cccc(CN2C(=O)S/C(=C/c3ccccc3[N+](=O)[O-])C2=O)c1,,"inconclusive: 63.1 µM [inhibitor, partial curve, poor fit]"

Structure (SMILES),"max response, negative = inhibition",Potency
Cc1nn(CC(=O)N2CCN(c3ccccc3)CC2)c(=O)c2cc3cc(F)ccc3n12,inactive: 14%,
O=C1N/C(=N/S(=O)(=O)c2ccccc2)S/C1=C/c1cccnc1,,"inconclusive: 79.4 µM [inhibitor, single point]"
O=C(c1cnccn1)N1CCC2(CCCN(c3ccc(-c4ccccc4)cc3)C2)CC1,,"inconclusive: 50.1 µM [inhibitor, partial curve]"
C=C(c1ccc(C(=O)O)cc1)c1cc2c(cc1C)C(C)(C)CCC2(C)C,,"inconclusive: 11.2 µM [inhibitor, full curve]"
O=C(/C(=C/O)N=Nc1ccc(Cl)cc1)c1ccncc1,,"inconclusive: 79.4 µM [inhibitor, partial curve, poor fit]"
O=C(O)c1cnc(-c2ccccc2)nc1Sc1ccc(Cl)cc1,inactive: -1.76%,
CCOC(=O)c1ccc(NC(=S)N2CCN(CCO)CC2)cc1,,"inconclusive: 79.4 µM [inhibitor, single point]"
CCc1ccc(NC(=O)CSc2ccc(-c3ccco3)nn2)cc1,,active: 79.4 µM
O=C(NCCN1CCCCC1)Nc1ccc(Cl)cc1,inactive: -16.6%,
CSc1nc(O)c(C(c2ccc(C)cc2)c2c(O)nc(SC)[nH]c2=O)c(=O)[nH]1,,"inconclusive: 56.2 µM [inhibitor, partial curve, poor fit]"
Cc1onc(-c2ccccc2Cl)c1C(=O)N[C@@H](C)c1ccccc1,inactive: -12.8%,
CCc1cc(=O)oc2cc(OC(=O)CN3C(=O)NC4(CCCC4)C3=O)ccc12,,"inconclusive: 56.2 µM [inhibitor, single point]"
Cc1ccc(C)c(S(=O)(=O)ON2C(=O)c3ccccc3C2=O)c1,,active: 20 µM
Cc1ccc2nc(-c3ccccc3)c(CC(=O)O)c(C(=O)O)c2c1,,"inconclusive: 100 µM [inhibitor, single point]"
COCCSc1nnc(NC(=O)CCS(=O)(=O)Cc2ccccc2)s1,,"inconclusive: 89.1 µM [inhibitor, single point]"
Cc1ccc(S(=O)(=O)n2nc(C)c(S(=O)(=O)N3CCC(C)CC3)c2C)cc1,inactive: 11.7%,
Cn1ncc2c(c(SCc3ccc(Cl)cc3Cl)nn2C)c1=O,,"inconclusive: 31.6 µM [inhibitor, partial curve, poor fit]"
CC1=NN(c2ccc(C)c(C)c2)C(=O)/C1=C/c1ccc2c(c1)n(C)c(=O)n2C,,"inconclusive: 79.4 µM [inhibitor, partial curve, poor fit]"
CCNC(=O)C1CCN(S(=O)(=O)c2ccc(F)cc2)CC1,,"inconclusive: 28.2 µM [inhibitor, single point]"
CCc1ccc2[nH]c(=O)c(CN(CCCN3CCOCC3)C(=O)Nc3cccc(Cl)c3)cc2c1,inactive: 4.75%,
CC(CCC#N)[N+](=O)[O-] (stereo not given),inactive: -6.42%,
COc1ccc(C(=S)N2CCOCC2)cc1OC(=O)c1cc(OC)c(OC)c(OC)c1,,"inconclusive: 79.4 µM [inhibitor, single point]"
